Data on two molecules can be found in publication PMC11868397.

The target in test [1] is T1, endogenous USP35 (ID8 cells) (mouse (endogenous in ID8)) (UniProt M0QWN7).
T1 sequence: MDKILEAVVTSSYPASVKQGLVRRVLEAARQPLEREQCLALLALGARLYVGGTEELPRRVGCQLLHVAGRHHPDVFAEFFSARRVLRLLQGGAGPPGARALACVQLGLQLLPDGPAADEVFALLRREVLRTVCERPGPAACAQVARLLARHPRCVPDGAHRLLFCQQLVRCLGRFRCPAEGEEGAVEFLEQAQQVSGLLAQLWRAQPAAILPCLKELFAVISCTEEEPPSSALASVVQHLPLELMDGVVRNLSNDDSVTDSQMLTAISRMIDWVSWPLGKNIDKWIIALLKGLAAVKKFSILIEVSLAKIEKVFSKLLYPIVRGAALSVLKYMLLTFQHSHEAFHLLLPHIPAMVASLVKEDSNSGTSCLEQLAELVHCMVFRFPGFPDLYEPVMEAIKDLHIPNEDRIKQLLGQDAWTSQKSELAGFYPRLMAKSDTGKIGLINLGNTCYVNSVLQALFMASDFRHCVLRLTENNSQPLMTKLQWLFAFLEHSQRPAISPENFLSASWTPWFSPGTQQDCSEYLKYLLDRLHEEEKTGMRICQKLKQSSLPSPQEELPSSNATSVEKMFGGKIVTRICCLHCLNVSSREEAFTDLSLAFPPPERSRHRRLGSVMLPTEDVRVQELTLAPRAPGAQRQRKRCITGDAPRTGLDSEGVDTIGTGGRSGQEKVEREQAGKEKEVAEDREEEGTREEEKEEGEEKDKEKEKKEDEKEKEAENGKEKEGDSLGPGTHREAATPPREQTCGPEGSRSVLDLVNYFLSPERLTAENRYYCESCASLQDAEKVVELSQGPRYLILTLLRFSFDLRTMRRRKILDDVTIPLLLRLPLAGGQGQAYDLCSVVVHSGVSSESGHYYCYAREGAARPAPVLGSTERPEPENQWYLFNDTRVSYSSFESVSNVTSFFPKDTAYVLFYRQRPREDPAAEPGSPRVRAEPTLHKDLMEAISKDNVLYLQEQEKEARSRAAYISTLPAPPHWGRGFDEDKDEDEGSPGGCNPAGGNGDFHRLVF
Description: co-IP; endogenous proteins in ID8 lysate; indicated antibody (anti-USP35 or anti-MAVS) and protein A/G beads 3 h at 4 °C; immunoblot. For orientation: In western blotting, separated proteins are transferred to a membrane and probed.

The target of test [2] is T2, endogenous MAVS (ID8 cells) (mouse (endogenous in ID8)) (UniProt Q8VCF0).
T2 sequence: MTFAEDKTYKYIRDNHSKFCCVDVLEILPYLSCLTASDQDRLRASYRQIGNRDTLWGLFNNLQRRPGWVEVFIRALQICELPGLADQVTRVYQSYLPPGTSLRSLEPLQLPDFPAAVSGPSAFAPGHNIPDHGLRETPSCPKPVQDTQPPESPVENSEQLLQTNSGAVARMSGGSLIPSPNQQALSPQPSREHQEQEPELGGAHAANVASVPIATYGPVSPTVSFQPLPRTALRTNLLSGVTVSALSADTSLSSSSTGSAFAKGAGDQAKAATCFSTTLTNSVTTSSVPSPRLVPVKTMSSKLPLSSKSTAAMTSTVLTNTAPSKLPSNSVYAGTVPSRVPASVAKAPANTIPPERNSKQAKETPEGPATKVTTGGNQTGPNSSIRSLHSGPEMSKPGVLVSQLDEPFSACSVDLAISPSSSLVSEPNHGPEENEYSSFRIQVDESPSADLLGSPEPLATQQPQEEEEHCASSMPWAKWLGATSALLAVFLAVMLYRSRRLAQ
Described as above.

These are yes or no findings as the source states them, for the method shown. Binding seen in cells or lysates may run through a third protein. Some entries that bind do so weakly or less than the wild type.

B1: endogenous MAVS (ID8 cells) (protein, UniProt Q8VCF0 1-503)
chain: MTFAEDKTYKYIRDNHSKFCCVDVLEILPYLSCLTASDQDRLRASYRQIGNRDTLWGLFNNLQRRPGWVEVFIRALQICELPGLADQVTRVYQSYLPPGTSLRSLEPLQLPDFPAAVSGPSAFAPGHNIPDHGLRETPSCPKPVQDTQPPESPVENSEQLLQTNSGAVARMSGGSLIPSPNQQALSPQPSREHQEQEPELGGAHAANVASVPIATYGPVSPTVSFQPLPRTALRTNLLSGVTVSALSADTSLSSSSTGSAFAKGAGDQAKAATCFSTTLTNSVTTSSVPSPRLVPVKTMSSKLPLSSKSTAAMTSTVLTNTAPSKLPSNSVYAGTVPSRVPASVAKAPANTIPPERNSKQAKETPEGPATKVTTGGNQTGPNSSIRSLHSGPEMSKPGVLVSQLDEPFSACSVDLAISPSSSLVSEPNHGPEENEYSSFRIQVDESPSADLLGSPEPLATQQPQEEEEHCASSMPWAKWLGATSALLAVFLAVMLYRSRRLAQ
In the case of B1, in test [1], the binding result is “binds”.

B2: endogenous USP35 (ID8 cells) (enzyme, UniProt M0QWN7 1-1009)
chain: MDKILEAVVTSSYPASVKQGLVRRVLEAARQPLEREQCLALLALGARLYVGGTEELPRRVGCQLLHVAGRHHPDVFAEFFSARRVLRLLQGGAGPPGARALACVQLGLQLLPDGPAADEVFALLRREVLRTVCERPGPAACAQVARLLARHPRCVPDGAHRLLFCQQLVRCLGRFRCPAEGEEGAVEFLEQAQQVSGLLAQLWRAQPAAILPCLKELFAVISCTEEEPPSSALASVVQHLPLELMDGVVRNLSNDDSVTDSQMLTAISRMIDWVSWPLGKNIDKWIIALLKGLAAVKKFSILIEVSLAKIEKVFSKLLYPIVRGAALSVLKYMLLTFQHSHEAFHLLLPHIPAMVASLVKEDSNSGTSCLEQLAELVHCMVFRFPGFPDLYEPVMEAIKDLHIPNEDRIKQLLGQDAWTSQKSELAGFYPRLMAKSDTGKIGLINLGNTCYVNSVLQALFMASDFRHCVLRLTENNSQPLMTKLQWLFAFLEHSQRPAISPENFLSASWTPWFSPGTQQDCSEYLKYLLDRLHEEEKTGMRICQKLKQSSLPSPQEELPSSNATSVEKMFGGKIVTRICCLHCLNVSSREEAFTDLSLAFPPPERSRHRRLGSVMLPTEDVRVQELTLAPRAPGAQRQRKRCITGDAPRTGLDSEGVDTIGTGGRSGQEKVEREQAGKEKEVAEDREEEGTREEEKEEGEEKDKEKEKKEDEKEKEAENGKEKEGDSLGPGTHREAATPPREQTCGPEGSRSVLDLVNYFLSPERLTAENRYYCESCASLQDAEKVVELSQGPRYLILTLLRFSFDLRTMRRRKILDDVTIPLLLRLPLAGGQGQAYDLCSVVVHSGVSSESGHYYCYAREGAARPAPVLGSTERPEPENQWYLFNDTRVSYSSFESVSNVTSFFPKDTAYVLFYRQRPREDPAAEPGSPRVRAEPTLHKDLMEAISKDNVLYLQEQEKEARSRAAYISTLPAPPHWGRGFDEDKDEDEGSPGGCNPAGGNGDFHRLVF
With B2, the binding result in test [2] was “binds”.
